From publication PMC7078210

Sequences of proteins named here, by UniProt entry; tags and fusion partners are left off.
UniProt A0A1S4BMC2, entry or part of it K252D R250D K251D K252D: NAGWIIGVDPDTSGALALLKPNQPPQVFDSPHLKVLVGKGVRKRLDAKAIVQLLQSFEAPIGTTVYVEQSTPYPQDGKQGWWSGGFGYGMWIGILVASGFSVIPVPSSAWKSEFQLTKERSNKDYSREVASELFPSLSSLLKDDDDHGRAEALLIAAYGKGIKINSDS
UniProt A0A1S4BMC2, entry or part of it R149D K185D K218D K225D: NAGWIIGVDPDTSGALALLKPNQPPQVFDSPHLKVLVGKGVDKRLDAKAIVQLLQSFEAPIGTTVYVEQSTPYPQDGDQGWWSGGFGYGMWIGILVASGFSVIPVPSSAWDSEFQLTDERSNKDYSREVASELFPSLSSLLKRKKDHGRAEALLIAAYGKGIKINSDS
UniProt A0A1S4BMC2, entry or part of it K218D: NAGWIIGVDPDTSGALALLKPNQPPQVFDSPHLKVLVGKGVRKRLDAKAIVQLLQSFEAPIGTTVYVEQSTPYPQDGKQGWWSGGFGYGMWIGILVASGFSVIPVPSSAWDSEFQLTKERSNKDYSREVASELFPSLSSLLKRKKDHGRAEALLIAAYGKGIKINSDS
UniProt A0A1S4BMC2, entry or part of it: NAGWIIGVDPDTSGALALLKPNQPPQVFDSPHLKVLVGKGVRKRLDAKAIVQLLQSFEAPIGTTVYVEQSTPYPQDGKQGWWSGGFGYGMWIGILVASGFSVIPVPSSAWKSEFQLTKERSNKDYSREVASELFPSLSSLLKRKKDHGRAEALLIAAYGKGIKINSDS
UniProt A0A1S4BMC2, entry or part of it K185D: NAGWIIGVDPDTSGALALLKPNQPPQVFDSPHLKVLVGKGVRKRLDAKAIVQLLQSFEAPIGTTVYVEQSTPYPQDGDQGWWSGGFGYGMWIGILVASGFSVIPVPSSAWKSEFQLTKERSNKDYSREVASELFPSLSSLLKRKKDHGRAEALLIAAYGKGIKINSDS
UniProt A0A1S4BMC2, entry or part of it R149D: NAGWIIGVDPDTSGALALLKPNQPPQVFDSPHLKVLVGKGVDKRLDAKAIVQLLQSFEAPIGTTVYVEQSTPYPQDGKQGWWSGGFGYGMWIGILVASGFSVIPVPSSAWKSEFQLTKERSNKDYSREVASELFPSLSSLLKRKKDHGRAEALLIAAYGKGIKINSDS
UniProt A0A1S4BMC2, entry or part of it D183A: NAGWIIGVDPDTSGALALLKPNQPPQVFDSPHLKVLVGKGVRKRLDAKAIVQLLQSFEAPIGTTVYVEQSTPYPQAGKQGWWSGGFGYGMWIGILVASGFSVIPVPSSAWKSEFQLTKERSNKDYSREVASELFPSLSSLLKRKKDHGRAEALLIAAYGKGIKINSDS

Columns and labels:
Test in all cases: EMSA
[1] = biological target: NtMOC1 R250/K251/K252D R250D,K251D,K252D (Nicotiana tabacum) (UniProt A0A1S4BMC2); details: 5 mM EDTA, total loss of binding, EMSA: 50 mM Tris-HCl pH 8.0, 1 mM DTT, 10% glycerol, 25 C, 30 min, HJ 250 nM, protein 0-1000 nM, 6% native PAGE, no MgCl2, recombinant protein, protein details: 6xHis N-term, removed (DrICE), label: none (GelRed stain), folded or branched DNA
[2] = biological target: NtMOC1 Tetra-M R149D,K185D,K218D,K225D (Nicotiana tabacum) (UniProt A0A1S4BMC2); details: 5 mM EDTA, total loss of binding, EMSA: 50 mM Tris-HCl pH 8.0, 1 mM DTT, 10% glycerol, 25 C, 30 min, HJ 250 nM, protein 0-1000 nM, 6% native PAGE, no MgCl2, recombinant protein, protein details: 6xHis N-term, removed (DrICE), label: none (GelRed stain), folded or branched DNA
[3] = biological target: NtMOC1 K218D (Nicotiana tabacum) (UniProt A0A1S4BMC2); details: 5 mM EDTA, equivalent to WT, EMSA: 50 mM Tris-HCl pH 8.0, 1 mM DTT, 10% glycerol, 25 C, 30 min, HJ 250 nM, protein 0-1000 nM, 6% native PAGE, no MgCl2, recombinant protein, protein details: 6xHis N-term, removed (DrICE), label: none (GelRed stain), folded or branched DNA
[4] = biological target: NtMOC1 WT (Nicotiana tabacum) (UniProt A0A1S4BMC2); details: 5 mM EDTA, EMSA: 50 mM Tris-HCl pH 8.0, 1 mM DTT, 10% glycerol, 25 C, 30 min, HJ 250 nM, protein 0-1000 nM, 6% native PAGE, no MgCl2, recombinant protein, protein details: 6xHis N-term, removed (DrICE), label: none (GelRed stain), folded or branched DNA
[5] = biological target: NtMOC1 K185D (Nicotiana tabacum) (UniProt A0A1S4BMC2); details: 5 mM EDTA, equivalent to WT, EMSA: 50 mM Tris-HCl pH 8.0, 1 mM DTT, 10% glycerol, 25 C, 30 min, HJ 250 nM, protein 0-1000 nM, 6% native PAGE, no MgCl2, recombinant protein, protein details: 6xHis N-term, removed (DrICE), label: none (GelRed stain), folded or branched DNA
[6] = biological target: NtMOC1 R149D (Nicotiana tabacum) (UniProt A0A1S4BMC2); details: 5 mM EDTA, equivalent to WT, EMSA: 50 mM Tris-HCl pH 8.0, 1 mM DTT, 10% glycerol, 25 C, 30 min, HJ 250 nM, protein 0-1000 nM, 6% native PAGE, no MgCl2, recombinant protein, protein details: 6xHis N-term, removed (DrICE), label: none (GelRed stain), folded or branched DNA
[7] = biological target: NtMOC1 D183A (Nicotiana tabacum) (UniProt A0A1S4BMC2); details: 5 mM EDTA, partially decreased, EMSA: 50 mM Tris-HCl pH 8.0, 1 mM DTT, 10% glycerol, 25 C, 30 min, HJ 250 nM, protein 0-1000 nM, 6% native PAGE, no MgCl2, recombinant protein, protein details: 6xHis N-term, removed (DrICE), label: none (GelRed stain), folded or branched DNA

“GGGCAAAGATGTCCCTCTGTTGTAATCG / CCAGTGCCTTGCTGGGACATCTTTGCCC / TAGACAGCTCCATCCAGCAAGGCACTGG / CGATTACAACAGAGGATGGAGCTGTCTA [X2 (CCGG) HJ]”: no binding [1]; no binding [2]; binds [3]. “GGGCAAAGATGTCCCTCTGTTGTAATCG / CCAGTGCCTTGCTGGGACATCTTTGCCC / TAGACAGCTCCATCCAGCAAGGCACTGG / CGATTACAACAGAGGATGGAGCTGTCTA [X2 (CCGG) HJ]”: binds [4]; binds [5]; binds [6]. “GGGCAAAGATGTCCCTCTGTTGTAATCG / CCAGTGCCTTGCTGGGACATCTTTGCCC / TAGACAGCTCCATCCAGCAAGGCACTGG / CGATTACAACAGAGGATGGAGCTGTCTA [X2 (CCGG) HJ]”: binds more weakly [7].

The exact form of at least one protein or probe is not confirmed. For some of these results: A negative result means that nothing was seen under these conditions. For some of these results: At least one verdict rests on a figure or table, not on a statement of the authors. For some of these results: A weaker result is weaker than the reference pair of the same experiment.
